This assay has as its target RIIα isoform of the PKA regulatory subunit (Mus musculus (Mouse)) (UniProt P12367). The assay can be described thus: fluorescence anisotropy.

Sequences of proteins named here, by UniProt entry; tags and fusion partners are left off. A change or cut given only in a name is not applied to a line headed by its entry.
UniProt P12367: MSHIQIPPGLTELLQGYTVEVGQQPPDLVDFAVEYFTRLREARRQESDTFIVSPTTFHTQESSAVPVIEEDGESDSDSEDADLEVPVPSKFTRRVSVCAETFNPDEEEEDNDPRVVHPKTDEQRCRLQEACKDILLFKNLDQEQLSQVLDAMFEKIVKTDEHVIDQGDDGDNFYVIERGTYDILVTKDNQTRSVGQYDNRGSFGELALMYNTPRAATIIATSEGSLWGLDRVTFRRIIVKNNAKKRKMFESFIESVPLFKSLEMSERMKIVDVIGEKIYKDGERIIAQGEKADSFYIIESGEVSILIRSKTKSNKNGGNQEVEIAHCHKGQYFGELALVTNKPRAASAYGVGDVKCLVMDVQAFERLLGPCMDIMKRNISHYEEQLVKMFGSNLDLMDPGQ

Results are given in words; binding and its absence hold for the method and conditions named. Some binding calls cover weakened binding; strength is not graded here.

For VQGNTDEAQEELAWKIAKMIVSDVMQQC (tetramethylrhodamine-5-maleimide on the C-terminal Cys; C-terminal amide) [AKB (dual), WT (SEQ ID NO:108) …, rhodamine-labeled], the binding result is on record as “binds”.

The record behind these values is patent US20030232420A1.
